Measured values as given in article doi:10.1101/2020.02.28.969071.
Like-named read-outs stand apart in the source and are kept apart here. These are yes or no findings as the source states them, for the method shown. Some results given as binding are weak or reduced against the parent protein; the word gives no strength. Tags and fused reporters may be left off the sequences shown. Blank lines part the entries; values can stand above or below the binder they belong to.

Protein sequences, listed by entry. Tags and fused reporters are not part of them.
UniProt Q96SW2: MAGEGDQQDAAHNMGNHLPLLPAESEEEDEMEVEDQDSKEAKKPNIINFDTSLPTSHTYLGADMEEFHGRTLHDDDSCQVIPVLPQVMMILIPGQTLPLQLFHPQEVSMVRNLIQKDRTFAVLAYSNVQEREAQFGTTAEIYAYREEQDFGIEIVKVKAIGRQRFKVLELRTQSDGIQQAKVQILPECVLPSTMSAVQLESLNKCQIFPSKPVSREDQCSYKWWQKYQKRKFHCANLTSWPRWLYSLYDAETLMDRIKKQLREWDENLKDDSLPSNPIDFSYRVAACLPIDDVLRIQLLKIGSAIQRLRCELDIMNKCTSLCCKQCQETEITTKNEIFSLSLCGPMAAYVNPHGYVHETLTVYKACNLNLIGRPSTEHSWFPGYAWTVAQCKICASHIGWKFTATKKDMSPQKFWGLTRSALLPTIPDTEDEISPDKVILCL

Tests used:
[1] = target: biotinylated HsCRBN (bls-CRBN), wild type (human) (UniProt Q96SW2); assay: AlphaScreen or HTRF
[2] = target: biotinylated HsCRBN (bls-CRBN), wild type (human) (UniProt Q96SW2); assay: AlphaScreen or HTRF; remark: listed apart in the source

binding [1]: binds
binding [2]: binds
B1: FLAG-GST-HMGB2 (protein, UniProt P26583 1-209)
chain: MGKGDPNKPRGKMSSYAFFVQTCREEHKKKHPDSSVNFAEFSKKCSERWKTMSAKEKSKFEDMAKSDKARYDREMKNYVPPKGDKKGKKKDPNAPKRPPSAFFLFCSEHRPKIKSEHPGLSIGDTAKKLGEMWSEQSAKDKQPYEQKAAKLKEKYEKDIAAYRAKGKSEAGKKGPGRPTGSKKKNEPEDEEEEEEEEDEDEEEEDEDEE

binding [1]: binds
binding [2]: binds
B2: FLAG-GST-ELF5 (protein, UniProt Q9UKW6 1-265)
chain: MPSLPHSHRVMLDSVTHSTFLPNASFCDPLMSWTDLFSNEEYYPAFEHQTACDSYWTSVHPEYWTKRHVWEWLQFCCDQYKLDTNCISFCNFNISGLQLCSMTQEEFVEAAGLCGEYLYFILQNIRTQGYSFFNDAEESKATIKDYADSNCLKTSGIKSQDCHSHSRTSLQSSHLWEFVRDLLLSPEENCGILEWEDREQGIFRVVKSEALAKMWGQRKKNDRMTYEKLSRALRYYYKTGILERVDRRLVYKFGKNAHGWQEDKL
